{"source": "patent US8013123B2", "about": "(B.R.A.H.M.S. GmbH, priority 2004, dated 2011)", "molecules": {"B1": {"name": "proenkephalin: precursor of the enkephalins, Sequence ID 1, including its fragments (protein)", "chain": "ECSQDCATCSYRLVRFADINFLACVMECEGKLPSLKIWETCKELLQLSKPELPQDGTSTLRENSKPEESHLLAKRYGGFMKRYGGFMKKMDELYPMEPEEEANGSEILAKRYGGFMKKNAEEDDSLANSSDLLKELLETGDNRERSHHQDGSDNEEEVSKRYGGFMRGLKRSPQLEDEAKELQKRYGGFMRRVGRPEWWMDYQKRYGGFLKRFAEALPSDEEGESYSKEVPEMEKRYGGFMRF"}}, "system": "enkephalin-fp", "experiment": "Immunoassay for the quantitative determination of enkephalin-fp (P571-coated tubes, tagged anti-PTE18)", "parameters": "species or system human", "details": "healthy controls", "data": [{"molecule": "B1", "values": [{"measurement": "liquor to plasma ratio (CSF median over plasma median)", "value": 130, "unit": "fold"}, {"measurement": "immune reactivity limit for 95% of healthy control individuals", "setting": "plasma", "value": "below 109 pg/ml"}, {"measurement": "median immune reactivity in plasma of healthy control individuals", "setting": "plasma", "value": 74, "unit": "pg/mL"}]}]}
